Data on four molecules can be found in paper PMC12735921, “Evaluation of Antiproliferative Activity and Molecular Modeling Studies of Some Novel Benzimidazolone-Bridged Hybrid Compounds” (Pharmaceuticals, 2025).

Several values for one entry are separate records, joined by “and”; a condition that tells them apart may be missing. Equal values may be shown once. A value given as a limit tells only on which side of the number the result lay.

This data set concerns A549, MCF-7, and HeLa cells. In words: MTT cell viability assay, ranges stated across the cancer cell lines. The following applies: range or bound over A549, MCF-7, HeLa; HEK 293 as reference. The format is cell-based, human. Here is the method:
Cell viability assay was performed on the human lung cancer (A549) (ATCC CCL-185), human breast cancer (MCF-7) (ATCC-HTB-22), cervical cancer (HeLa) (ATCC-CCL-2), and human embryonic kidney 293 (HEK293) (ATCC-CRL-1573) cell lines, which were purchased from Deutsche Sammlung von Mikroorganismen und Zellkulturen (DSMZ, Braunschweig, Germany). The cells were maintained in Dulbecco’s modified Eagle’s medium (DMEM), supplemented with 10% fetal bovine serum (FBS), 2 mM L-glutamine, 100 U/mL penicillin, and 100 mg/L streptomycin (Biochrom AG, Berlin, Germany) at 37 °C in a humidified atmosphere of 5% CO2.
The cytotoxic effect was determined by the MTT (3-(4,5-dimethyl-2-thiazolyl)-2,5-diphenyl-2H-tetrazolium bromide) cell viability assay. Cells were seeded at an initial concentration of 1 × 10^5 cells/mL in 96-well microplates. Cells were then treated with different concentrations (0.5, 5, 10, 25, 50, 100 and 200 µM) of the novel synthesized compounds for 48 h. After the incubation period, the formed formazan crystals were dissolved in dimethyl sulfoxide (DMSO), and the optical density (OD) of the compounds was measured at 570 nm using a spectrophotometer (BMG Labtech, Ortenberg, Germany). Cytotoxicity was expressed as an increase in the mean percentage of cytotoxicity relative to the unexposed control ± standard deviation (SD). […] Control values were set at 0% cytotoxicity. IC50 was calculated by fitting the data to a sigmoidal curve using a four-parameter logistic model and was presented as an average of three independent measurements. […] Doxorubicin was used as a positive control. Each sample was tested in triplicate.
To evaluate the selectivity of the tested compound(s) toward cancer cells over normal cells, the Selectivity Index (SI) was calculated using the following formula:SI = IC50 (normal cells)/IC50 (cancer cells)
An SI value greater than 2 was considered to indicate selective cytotoxicity, while values below 2 were interpreted as non-selective. Higher SI values reflect greater therapeutic potential due to reduced toxicity toward normal cells.
On to `O=C(Cn1c(=O)n(CC(=O)c2ccccc2)c2cc(Cl)c(Cl)cc21)c1ccccc1` [Compound 8, 5,6-Dichloro-1,3-bis(2-oxo-2-phenylethyl)-1,3-dihydro-2H-benzimidazol-2-one], for which the “SI values across the tested cancer cell lines” value is on record as 0.73–0.91.

For `CCN(CC)c1ccc2cc(C(=O)NNC(=O)Cn3c(=O)n(CC(=O)NNC(=O)c4cc5ccc(N(CC)CC)cc5oc4=O)c4cc(Cl)c(Cl)cc43)c(=O)oc2c1` [Compound 12f], the “SI values across the tested cancer cell lines” value is recorded as 1.49 to 1.84.

Turning to `O=c1n(CN2CCN(c3ccc(Cl)cc3)CC2)c2cc(Cl)c(Cl)cc2n1CN1CCN(c2ccc(Cl)cc2)CC1` [Compound 9, 5,6-Dichloro-1,3-bis((4-(4-chlorophenyl)piperazin-1-yl)methyl)-1H-benzo[d]imidazol-2(3H)-one], the “SI values across the tested cancer cell lines” value is 1.35–1.78 and < 2.

For `O=C(O)Cn1c(=O)n(CC(=O)O)c2cc(Cl)c(Cl)cc21` [Compound 6, 2,2′-(5,6-Dichloro-2-oxo-1H-benzo[d]imidazole-1,3(2H)-diyl)diacetic Acid], the “SI values across the tested cancer cell lines” value was at least 2.0.
